Experimental data reported in patent US20210087231A1 (UNIVERSITY OF MARYLAND BALTIMORE, published 2021).
No constants are given. Whether binding was seen depends on the method and setting. Some binding calls cover weakened binding; strength is not graded here.

The chains behind the UniProt entries cited, without tags or fusion partners. Residues count along the entry.
UniProt Q99836, residues 155-296: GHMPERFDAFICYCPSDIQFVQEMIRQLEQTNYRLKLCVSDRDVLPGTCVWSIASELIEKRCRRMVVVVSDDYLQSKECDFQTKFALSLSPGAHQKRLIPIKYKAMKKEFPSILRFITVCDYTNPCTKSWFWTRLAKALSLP

What was measured:
MyD88-Cer [1] = biological target: T1, MyD88-Cer (UniProt Q99836 155-296); assay: FRET-FLIM in HeLa cells
T1 construct: The vector is 'described previously'; Expressed in HeLa cells; also called MyD88 TIR-Cer; Cer-labeled MyD88 TIR; not shown: Cerulean fluorescent protein (Cer)

TLR9 TIR-Cer [2] = biological target: T2, TLR9 TIR-Cer (UniProt Q9NR96); assay: FRET-FLIM in HeLa cells
T2 sequence (looked up): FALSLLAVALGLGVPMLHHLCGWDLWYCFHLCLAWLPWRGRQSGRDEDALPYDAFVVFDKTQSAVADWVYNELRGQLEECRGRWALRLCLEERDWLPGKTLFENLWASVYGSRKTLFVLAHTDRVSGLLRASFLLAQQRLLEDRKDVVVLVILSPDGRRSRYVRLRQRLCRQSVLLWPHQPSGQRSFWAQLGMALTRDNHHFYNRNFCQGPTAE

MyD88-Cer [3] = biological target: T1, MyD88-Cer; assay: FRET-FLIM in HeLa cells (FIG. 13)
TLR9 TIR-Cer [4] = biological target: T2, TLR9 TIR-Cer; assay: FRET-FLIM in HeLa cells (FIG. 13)
MyD88-Cer [5] = biological target: T1, MyD88-Cer; assay: FRET-FLIM in HeLa cells (FIG. 11, 12, 13)
MyD88-Cer [6] = biological target: T1, MyD88-Cer; assay: FRET-FLIM in HeLa cells expressing MyD88-Cer
TLR9 TIR-Cer [7] = biological target: T2, TLR9 TIR-Cer; assay: cell-based FRET-FLIM binding assay
TLR9 TIR-Cer [8] = biological target: T2, TLR9 TIR-Cer; assay: FLIM images of HeLa cells, TLR9/TIR-Cer+9R34-ΔN (FIG. 11B)

Measured: binding

RQIKIWFQNRRMKWKKRSFWAQLGMALTRD (Cy3 label at the peptide N-terminus) [Cy3-9R11]
binds: MyD88-Cer [1] | TLR9 TIR-Cer [2] | MyD88-Cer [3] | TLR9 TIR-Cer [4] | MyD88-Cer [5] | MyD88-Cer [6]

RQIKIWFQNRRMKWKKALRLCLEERD (Cy3 label at the peptide N-terminus) [Cy3-9R34-ΔN]
binds: TLR9 TIR-Cer [2] | TLR9 TIR-Cer [4] | TLR9 TIR-Cer [7] | TLR9 TIR-Cer [8]
